Source: patent publication US20030180396A1, “Method of effecting phosphorylation in eucaryotic cells using thiamine triphosphate” (INSTITUT PASTEUR, priority 1999, published 2003)

Test system: TTP-dependent kinase(s) (TTP-kinase, TTP-43K-kinase)
Test: TTP-dependent phosphorylation of 43K rapsyn by endogenous kinase(s) in nAChR-rich postsynaptic membranes
Format: biochemical, Torpedo marmorata
Conditions: 200 nM
Protocol: nAChR-rich postsynaptic membranes (nAChR-membranes) were prepared from electric organs excised from freshly killed Torpedo marmorata (T.m.) (Biologie Marine, Arcachon) (3, 16).
[γ-^32P]-TTP (^32P-TTP) was synthesized (27). nAChR-membranes were phosphorylated with (7-8000 Ci/mol) ^32P-TTP or ^32P-ATP in 50 mM Tris-HCl pH 7.5, 5-15 mM MgCl2, 0.08% CHAPS, inhibitors of proteases at 4°-20° C. for 60-90 minutes. […] Coomassie blue staining was performed when necessary. Where specified, nAChR-membranes were treated with 5-20 mM diethylpyrocarbonate (DEPC.) (28) in 50 mM Na phosphate buffer pH 6.0 and 7.4 (20 min, 16° C.), prior to incubation with ^32P-TTP.
A purified extract containing the kinase responsible for the TTP dependent phosphorylation of histidine residues on rapsyn, is preincubated with increasing concentration of products inhibiting the enzymatic activity of said kinase (FIG. 3A).

CN[C@@H]1C[C@H]2O[C@@](C)([C@@H]1OC)n1c3ccccc3c3c4c(c5c6ccccc6n2c5c31)C(=O)NC4 [staurosporine]
% inhibition of TTP-kinase: 33±3%
